Measured data: PubChem BioAssay AID1671195 (Yale University, 2021)
The whole screen tested about 22,000 reagents; this is a part drawn at random. In the full data, about 1,510 (6.9%) were called active. 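Active includes knockdowns raising or lowering LDL uptake; positive z-scores mean more uptake, negative mean less.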 Entries without a mark were called inactive.

Aim: 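Knockdowns that increase or decrease uptake of fluorescent LDL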 (primary screen)
System: human Huh7 hepatoma cells
Reagents: siRNA pool against human genes, 18 nM
Timing: about 2 to 2.5 days of knockdown, then 8 h LDL uptake
Challenge: DiI-labelled LDL at 30 µg/ml for 8 h, in lipoprotein-deficient serum medium
Measurement: 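Fluorescent LDL signal imaged in cells, scaled to the plate median, robust z-score for each replicate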
Scale: robust z-score: higher = more LDL uptake after knockdown
Hit rule: 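Active when two or more replicates show a robust z-score above 2 or below -2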

{"gene":"DEUP1","robust z-score, replicate 1":1.07,"robust z-score, replicate 2":1.9,"robust z-score, replicate 3":1.03}
{"gene":"HADHB","robust z-score, replicate 1":-0.228,"robust z-score, replicate 2":-0.586,"robust z-score, replicate 3":0.0769}
{"gene":"PPID","robust z-score, replicate 1":1.12,"robust z-score, replicate 2":1.88,"robust z-score, replicate 3":1.44}
{"gene":"KLHDC9","robust z-score, replicate 1":0.729,"robust z-score, replicate 2":0.454,"robust z-score, replicate 3":0.575}
{"gene":"C6orf118","robust z-score, replicate 1":"-1.75 (active)","robust z-score, replicate 2":-2.42,"robust z-score, replicate 3":-2.24}
{"gene":"ZNF419","robust z-score, replicate 1":-0.0852,"robust z-score, replicate 2":-0.414,"robust z-score, replicate 3":0.0637}
{"gene":"LOC440241 (retired record)","robust z-score, replicate 1":-0.514,"robust z-score, replicate 2":-0.614,"robust z-score, replicate 3":-0.158}
{"gene":"TMC6","robust z-score, replicate 1":-0.389,"robust z-score, replicate 2":-0.975,"robust z-score, replicate 3":-0.119}
{"gene":"CCT5","robust z-score, replicate 1":-0.44,"robust z-score, replicate 2":-0.5,"robust z-score, replicate 3":-0.378}
{"gene":"SCGB1C1","robust z-score, replicate 1":-0.128,"robust z-score, replicate 2":-0.12,"robust z-score, replicate 3":-0.595}
{"gene":"UBP1","robust z-score, replicate 1":-0.173,"robust z-score, replicate 2":-0.176,"robust z-score, replicate 3":-0.168}
{"gene":"AP1S2","robust z-score, replicate 1":-0.94,"robust z-score, replicate 2":-1.42,"robust z-score, replicate 3":-1.2}
{"gene":"EYA2","robust z-score, replicate 1":0.284,"robust z-score, replicate 2":0.0732,"robust z-score, replicate 3":-0.456}
{"gene":"PABIR1","robust z-score, replicate 1":-0.316,"robust z-score, replicate 2":-0.0584,"robust z-score, replicate 3":0.0478}
{"gene":"GUCY1B1","robust z-score, replicate 1":-0.166,"robust z-score, replicate 2":1.83,"robust z-score, replicate 3":0.363}
{"gene":"INPP5F","robust z-score, replicate 1":-1.44,"robust z-score, replicate 2":-0.688,"robust z-score, replicate 3":-1.11}
{"gene":"WFDC21P","robust z-score, replicate 1":0.702,"robust z-score, replicate 2":1.38,"robust z-score, replicate 3":1.27}
{"gene":"TMEM158","robust z-score, replicate 1":0.0553,"robust z-score, replicate 2":0.588,"robust z-score, replicate 3":0.509}
{"gene":"CAMK4","robust z-score, replicate 1":0.465,"robust z-score, replicate 2":0.681,"robust z-score, replicate 3":1.04}
{"gene":"LOC284240","robust z-score, replicate 1":"2.08 (active)","robust z-score, replicate 2":2.07,"robust z-score, replicate 3":2.22}
{"gene":"ATF4","robust z-score, replicate 1":-0.613,"robust z-score, replicate 2":-0.176,"robust z-score, replicate 3":-0.501}
{"gene":"TGFB2","robust z-score, replicate 1":0.81,"robust z-score, replicate 2":0.48,"robust z-score, replicate 3":-0.9}
{"gene":"RBP3","robust z-score, replicate 1":1.96,"robust z-score, replicate 2":0.887,"robust z-score, replicate 3":1.75}
{"gene":"LSM5","robust z-score, replicate 1":-1.1,"robust z-score, replicate 2":0.513,"robust z-score, replicate 3":-0.857}

Reagents listed above marked active, once more:
{"gene":"C6orf118","robust z-score, replicate 1":"-1.75 (active)","robust z-score, replicate 2":-2.42,"robust z-score, replicate 3":-2.24}
{"gene":"LOC284240","robust z-score, replicate 1":"2.08 (active)","robust z-score, replicate 2":2.07,"robust z-score, replicate 3":2.22}
